Results reported in patent US20250189532A1, “1,6-DIYNE COMPOUND, ITS PREPARATION METHOD, AND PRODUCTS OBTAINED USING 1,6-DIYNE COMPOUND AS RAW MATERIAL AND THEIR APPLICATIONS” (Fujian Institute of Research on the Structure of Matter, …, priority 2022, published 2025).

Experiment: Detection of active oxygen on polytetrafluoroethylene carrier
Experimental: The compound PA-1 is dissolved in dichloromethane and applied to five pieces of polytetrafluoroethylene carriers respectively, then sodium hypochlorite aqueous solutions with different concentrations (8% mass concentration of sodium hypochlorite aqueous solution, 50 times diluted solution, 500 times diluted solution, 500 times diluted solution, and NaClO-free aqueous solution) are dripped on the carriers. Then, heat at 100° C. for 30 seconds.

C#CCN(C(C#Cc1ccccc1)c1ccccc1)S(=O)(=O)c1ccccc1 (centres unmarked) [PA-1]
colour change of the carrier (sodium hypochlorite aqueous solutions dripped on, heated at 100° C. for 30 seconds): from colorless to red | fluorescence change (under 365 nm ultraviolet light, sodium hypochlorite, 100° C. for 30 seconds): from no fluorescence to strong fluorescence
